# Data from PMC12480911, “Visualization of liquid-liquid phase transitions using a tiny G-quadruplex binding protein”.
# Substitutions are numbered along the chain they refer to. For some of these results: A weaker result is weaker than the reference pair of the same experiment. For some of these results: Protein sequences can lack the tags named with them. For some of these results: For at least one entry, the source does not settle the construct or the ends of the probe. For some of these results: At least one verdict rests on a figure or table, not on a statement of the authors.
# How the values were obtained:
# SERF2 (human) [1] = biological target: T1, SERF2 (human) (UniProt P84101); experiment: fluorescence polarization; conditions: FP/anisotropy: 20 mM NaPi pH 7.4, 100 mM KCl, 25 C (20-200 nM probe), recombinant protein, residues 1-59, protein details: His-SUMO removed, AF488-labeled in some assays
# T1 sequence (looked up): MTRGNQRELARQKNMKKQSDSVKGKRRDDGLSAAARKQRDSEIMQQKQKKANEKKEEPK
# SERF2 (human) [2] = biological target: T1, SERF2 (human); experiment: EMSA; conditions: recombinant protein, residues 1-59, protein details: His-SUMO removed, AF488-labeled in some assays, label: 6-FAM (FP)
# [3] = biological target: T2, SERF2 K16-K17 double mutant K16A,K17A (human) (UniProt P84101); experiment: EMSA; conditions: 5 uM each, significantly impaired; recombinant protein; residues 1-59; protein details: His-SUMO removed; label: 6-FAM (FP), unlabeled (NMR, EMSA)
# T2 sequence (looked up): T1 sequence (looked up) with K16A, K17A
# [4] = biological target: SERF2 both-interface lysine mutant (human) (UniProt P84101); experiment: EMSA; conditions: 5 uM each, further reduced; recombinant protein; residues 1-59; protein details: His-SUMO removed; label: 6-FAM (FP), unlabeled (NMR, EMSA)
# [5] = 100 mM KCl, folded or branched DNA
sequence,measurement,setting,value
TTAGGGTTAGGGTTAGGGTTAGGG [(TTAGGG)4 DNA],binding result,SERF2 (human) [1]; [5],binds more weakly
GAAGGGGAGGGGGCUGGGGGGGGGCAGGG [Mark2 rG4],binding result,"SERF2 (human) [2]; 10 uM RNA, 5-40 uM SERF2",binds
UAGGGUUAGGGUUAGGGUUAGGG [TERRA23],binding result,"SERF2 (human) [2]; 5 uM each, unlabeled (NMR, EMSA)",binds
same,binding result,[3],binds more weakly
same,binding result,[4],binds more weakly
GGGGCCGGGGCCGGGGCCGGGGCC [(GGGGCC)4 DNA],binding result,SERF2 (human) [1]; [5],binds more weakly
UUAGGGUUAGGG [TERRA12],binding result,"SERF2 (human) [1]; AF488-SERF2, weaker than TERRA23/60",binds more weakly
